# From patent US20030157069A1
# The chains behind the UniProt entries cited, without tags or fusion partners. Where a name states a change or a piece, a line headed by the entry shows the natural chain unless it says otherwise.
# UniProt Q00342: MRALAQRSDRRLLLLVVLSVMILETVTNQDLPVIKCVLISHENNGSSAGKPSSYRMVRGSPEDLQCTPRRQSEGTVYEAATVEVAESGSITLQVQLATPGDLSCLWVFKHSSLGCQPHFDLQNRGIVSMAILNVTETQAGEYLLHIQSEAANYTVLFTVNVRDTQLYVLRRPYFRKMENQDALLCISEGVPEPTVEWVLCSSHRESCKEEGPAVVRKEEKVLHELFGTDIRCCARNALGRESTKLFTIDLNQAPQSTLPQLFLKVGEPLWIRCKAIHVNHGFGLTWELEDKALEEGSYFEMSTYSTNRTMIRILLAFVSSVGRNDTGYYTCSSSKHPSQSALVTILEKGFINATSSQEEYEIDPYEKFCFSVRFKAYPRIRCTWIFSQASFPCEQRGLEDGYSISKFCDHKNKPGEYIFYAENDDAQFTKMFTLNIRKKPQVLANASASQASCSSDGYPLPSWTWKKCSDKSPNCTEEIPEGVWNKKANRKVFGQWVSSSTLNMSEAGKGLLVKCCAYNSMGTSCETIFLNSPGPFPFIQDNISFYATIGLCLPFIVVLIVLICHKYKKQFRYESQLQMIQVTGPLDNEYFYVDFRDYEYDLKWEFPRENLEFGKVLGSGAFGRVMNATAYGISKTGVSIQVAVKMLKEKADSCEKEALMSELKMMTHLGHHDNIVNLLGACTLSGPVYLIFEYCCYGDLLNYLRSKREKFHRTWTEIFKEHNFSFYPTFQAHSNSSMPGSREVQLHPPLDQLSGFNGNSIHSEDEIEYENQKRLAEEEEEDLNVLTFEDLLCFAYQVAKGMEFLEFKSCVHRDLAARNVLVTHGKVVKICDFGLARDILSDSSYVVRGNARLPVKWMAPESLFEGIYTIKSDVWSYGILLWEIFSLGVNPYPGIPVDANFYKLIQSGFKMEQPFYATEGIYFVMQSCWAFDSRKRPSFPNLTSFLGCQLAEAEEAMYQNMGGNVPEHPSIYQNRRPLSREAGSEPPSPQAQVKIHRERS
# No constants are given. Whether binding was seen depends on the method and setting. Some binding calls cover weakened binding; strength is not graded here.
# Target: T1, murine flt3-ligand of clone #6C (murine) (UniProt P49772)
# T1 sequence: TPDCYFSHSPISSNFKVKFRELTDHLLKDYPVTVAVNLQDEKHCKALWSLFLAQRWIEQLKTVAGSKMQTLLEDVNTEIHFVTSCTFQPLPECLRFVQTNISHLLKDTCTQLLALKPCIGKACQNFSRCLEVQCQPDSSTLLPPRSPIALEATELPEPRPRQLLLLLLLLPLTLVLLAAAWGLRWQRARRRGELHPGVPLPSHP
# Assay: slide autoradiography: transfected CV-1/EBNA-1 cells incubated with flt3:Fc (1 ug/ml), detected with 125I-mouse anti-human Fc antibody
substance,measurement,value
soluble murine flt3-receptor:Fc fusion protein (from UniProt Q00342 28-544; P01857 99-330),binding,binds
